# Results are given in words; binding and its absence hold for the method and conditions named. In cells and extracts the contact can be indirect. Some binding calls cover weakened binding; strength is not graded here.
# Biological target: T1, G3BP2 (UniProt Q9UN86)
# T1 sequence: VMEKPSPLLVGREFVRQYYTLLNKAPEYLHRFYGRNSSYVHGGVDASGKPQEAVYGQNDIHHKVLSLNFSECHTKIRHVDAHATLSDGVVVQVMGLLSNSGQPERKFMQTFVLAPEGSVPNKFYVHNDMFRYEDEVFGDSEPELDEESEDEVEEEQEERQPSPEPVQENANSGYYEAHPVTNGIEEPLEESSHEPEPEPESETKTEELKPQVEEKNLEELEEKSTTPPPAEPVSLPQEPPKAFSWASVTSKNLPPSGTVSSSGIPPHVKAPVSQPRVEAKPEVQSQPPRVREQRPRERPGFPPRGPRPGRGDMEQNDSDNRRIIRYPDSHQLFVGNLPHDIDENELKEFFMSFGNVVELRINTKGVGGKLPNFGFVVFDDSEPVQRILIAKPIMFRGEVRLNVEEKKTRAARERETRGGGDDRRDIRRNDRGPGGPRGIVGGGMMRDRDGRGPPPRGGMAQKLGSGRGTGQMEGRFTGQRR
# Test: co-immunoprecipitation in ΔFHL1 cells
substance,measurement,value
FLAG-tagged CHIKV nsP3 (pCI-neo-3×FLAG plasmid expressing the CHIKV nsP3) (from UniProt Q8JUX6 1334-1856),binding,binds

# — US20220098681A1
